Source: PMC12040169 (PLOS Biology, 2025)
This is one part of the list.

System: T1, CTL2-GFP (C. trachomatis L2/434/Bu, GFP-expressing)
T1 construct: L2/434/Bu, GFP-expressing
Set-up: species or system HeLa; Intracellular C. trachomatis growth in HeLa cells, bulk GFP fluorescence relative to DMSO
Conditions: bulk GFP, single well; 28.5 h, 10 µM; inhibitor

| Structure (SMILES) | % of control remaining |
| --- | --- |
| OCC(O)CN1CCc2ccccc21 (centres unmarked) [CBK260896] | 100% |
| Cc1cc(Br)cc(C)c1NC(=O)CSc1nnc(COc2ccccc2Cl)o1 [CBK264968] | 116.17% |
| CC(C)(C)c1csc(Nc2nc3cc4c(cc3s2)OCO4)n1 [CBK287491] | 139.744% |
| COc1ccc(Cn2c(C)nc3ccccc32)cc1 [CBK201156] | 88.9643% |
| NC(=O)CN1CC2(CCN(CC3COc4ccccc4O3)CC2)c2ccccc21 (centres unmarked) [CBK143960] | 161.651% |
| CC(C)c1cccc(-n2cc(O)c(C(=O)NCCC(=O)N(C)C)n2)c1 [CBK305234] | 138.551% |
| N#Cc1c(O)nsc1Nc1ccc(Cl)cc1 [CBK009446] | 134.467% |
| Cn1cc(CN2CCCN(C(=O)CCCc3ccccn3)CC2)cn1 [CBK305347] | 111.882% |
| O=S(=O)(Cc1ccccc1)Nc1nnc(C(F)(F)F)s1 [CBK045539] | 128.701% |
| CCOCC1CCCN1C(=O)Nc1ccc2sc(C(=O)N(C)C)cc2c1 (centres unmarked) [CBK306601] | 130.702% |
| c1ccc(SCCCN2CCNCC2)cc1 [CBK266067G] | 132.082% |
| CC(C)[C@H](CO)Nc1nccnc1-c1ccco1 [CBK037390] | 130.036% |
| Cc1cc(C(=O)N2CCN(C)CC2)ccc1-c1cnc(N)c(-c2ccc(O)cc2)n1 [CBK126749] | 103.624% |
| O=C(NCCc1ccccc1Cl)C1(Cc2ccc(-c3cccnc3)cc2)CCOCC1 [CBK285590] | 74.8639% |
| Cc1nnc(CCn2cnc3cccnc3c2=O)s1 [CBK307125] | 107.384% |
| CN(CC(=O)O/N=C(\N)c1ccc(I)cc1)S(=O)(=O)c1cc(Cl)ccc1Cl [CBK268389] | 110.575% |
| CCc1nc(CNc2ccc(NC(C)=O)cc2Cl)cs1 [CBK305103] | 109.848% |
| Nc1ncc(-c2cccc3ncccc23)nc1NC1CCOCC1 [CBK063852] | 135.05% |
| O=C(CCSc1nc(-c2ccco2)cc(C(F)(F)F)n1)N1CCN(c2ccccn2)CC1 [CBK267626] | 99.4746% |
| COc1ccc(-n2c(SCC(=O)c3ccccc3)nc(O)c(Cc3ccccc3)c2=O)cc1 [CBK263398] | 111.351% |
| O=C(O)CC(CN1C(=O)c2ccccc2C1=O)C(=O)c1ccccc1 (centres unmarked) [CBK287221] | 109.778% |
| N#CCCCN1CCC(Oc2nccnc2OCc2ccc(F)cc2)CC1 [CBK153643] | 94.8888% |
| COc1ccc(OC(=O)c2ccc3nonc3c2)cc1 [CBK083571] | 106.27% |
| O=C(Nc1ccc2cc[nH]c2c1)c1cccnc1 [CBK160053] | 131.386% |
| O=C(C1=C(O)C(=O)N(CCCn2ccnc2)C1c1ccncc1)c1cccs1 (centres unmarked) [CBK111017] | 114.604% |
| CCNC(=O)N[C@H]1CO[C@H]2[C@@H]1OC[C@@H]2Nc1nccc(-c2cccc(F)c2)n1 [CBK289536] | 113.64% |
| CC(C)C(C(=O)O)N(C)C(=O)OCc1ccccc1 (centres unmarked) [CBK286593] | 106.037% |

Shown as comma-separated lines: part of the list above.
Structure (SMILES),% of control remaining
OCC(O)CN1CCc2ccccc21 (centres unmarked) [CBK260896],100%
Cc1cc(Br)cc(C)c1NC(=O)CSc1nnc(COc2ccccc2Cl)o1 [CBK264968],116.17%
CC(C)(C)c1csc(Nc2nc3cc4c(cc3s2)OCO4)n1 [CBK287491],139.744%
COc1ccc(Cn2c(C)nc3ccccc32)cc1 [CBK201156],88.9643%
NC(=O)CN1CC2(CCN(CC3COc4ccccc4O3)CC2)c2ccccc21 (centres unmarked) [CBK143960],161.651%
CC(C)c1cccc(-n2cc(O)c(C(=O)NCCC(=O)N(C)C)n2)c1 [CBK305234],138.551%
N#Cc1c(O)nsc1Nc1ccc(Cl)cc1 [CBK009446],134.467%
Cn1cc(CN2CCCN(C(=O)CCCc3ccccn3)CC2)cn1 [CBK305347],111.882%
O=S(=O)(Cc1ccccc1)Nc1nnc(C(F)(F)F)s1 [CBK045539],128.701%
CCOCC1CCCN1C(=O)Nc1ccc2sc(C(=O)N(C)C)cc2c1 (centres unmarked) [CBK306601],130.702%
c1ccc(SCCCN2CCNCC2)cc1 [CBK266067G],132.082%
CC(C)[C@H](CO)Nc1nccnc1-c1ccco1 [CBK037390],130.036%
Cc1cc(C(=O)N2CCN(C)CC2)ccc1-c1cnc(N)c(-c2ccc(O)cc2)n1 [CBK126749],103.624%
O=C(NCCc1ccccc1Cl)C1(Cc2ccc(-c3cccnc3)cc2)CCOCC1 [CBK285590],74.8639%

Continuation.

| Structure (SMILES) | % of control remaining |
| --- | --- |
| CC(=O)NCc1cccc(-c2cc(C(=O)Nc3ccc4c(c3)OCCO4)cnc2O)c1 [CBK149871T] | 122.703% |
| O=C(c1ccc(=O)[nH]n1)N1C2CCC1CC(c1ccc(F)cc1)C2 (centres unmarked) [CBK283737] | 119.041% |
| CCOc1cc(S(=O)(=O)NCCCN2CCOCC2)c(C)cc1C [CBK268764] | 125.502% |
| CSc1cc(C)c2c(c1)COC1(CCN(CC3CC3)CC1)O2 [CBK061383] | 166.119% |
| COc1ccc(N2CCN(c3cncc(-c4ccc(C(N)=O)cc4)n3)CC2)cc1OC [CBK065820] | 193.07% |
| COc1cccc(NC(=O)CN2CCC(NC(=O)c3cccs3)CC2)c1 [CBK305800] | 109.698% |
| Fc1ccc(-c2cccc(N3CCN(c4ccccn4)CC3)n2)cc1Cl [CBK036877] | 87.5501% |
| Cc1cccn2c(CN3CCC(O)CC3)c(C(=O)N3CCCCC3)nc12 [CBK307639] | 140.968% |
| Cc1nnc(CS(=O)(=O)Cc2csc(C(C)(C)C)n2)n1C1CC1 [CBK305489] | 122.349% |
| O=CN1C2CCC1c1cnc3cc(-c4cccc(F)c4)nn3c1C2 (centres unmarked) [CBK282269] | 126.598% |
| Cc1ccc(C(=O)O)cc1NC(=O)C1CCCCC1C(=O)O (centres unmarked) [CBK263679] | 112.11% |
| Cc1ccn(CCNC(=O)CCN2Cc3ccccc3C2=O)n1 [CBK282655] | 104.453% |
| CCOCc1nc2c(c(NCc3cc(C)on3)n1)CCN(C(C)=O)CC2 [CBK307512] | 99.1273% |
| CCNC(=O)C1(Cc2ccccc2-c2ccccc2C)CCN(C(=O)c2ccccc2)CC1 [CBK285716] | 96.8435% |
| N#CCCN1CCC2(CC1)NCCc1c2[nH]c2ccccc12 [CBK039788] | 151.97% |
| CCOC(=O)C(CNC(=O)c1cnc(C)c(Br)c1Cl)Cc1ccccc1 (centres unmarked) [CBK305247] | 101.554% |
| O=C(NC(=S)N1C[C@@H]2C[C@@H](C1)c1cccc(=O)n1C2)c1ccco1 [CBK288492] | 92.4155% |
| CC(C)(Oc1ccc(Cl)cc1)C(=O)O/N=C(\N)c1ccc(I)cc1 [CBK268760] | 161.534% |
| O=C(Nc1ccc(OC(F)F)cc1)Nc1ncc(Br)c2cccnc12 [CBK107635] | 201.65% |
| Cc1noc(C)c1C(=O)NC1Cc2ccccc2C1 [CBK200350] | 125.894% |
| Cc1nc2ccc(C(=O)OCc3ccc(S(=O)(=O)Cc4ccccc4)cc3)cc2nc1C [CBK269661] | 126.912% |
| COC(=O)c1ccc(-c2ccsc2)nc1 [CBK149229] | 123.779% |
| O=C(O)C1CCN(c2cncc(-c3ccc(F)cc3F)n2)CC1 [CBK065899] | 151.112% |
| COc1ccc(CN2CCC(Cc3ccccc3-c3ccc(C)cc3C)(C(=O)O)CC2)cc1 [CBK286421] | 127.226% |
| COc1ccc(C2(NCc3cn(CC(N)=O)c4ccccc34)CC2)cc1 [CBK282833] | 90.2488% |
| COc1cccc(N2N=C3NNC(N)=C3N2)c1 [CBK093665] | 106.353% |
| COc1ccc(C(=O)N2CC[C@H]3NC(=O)N(Cc4ccccc4)C(=O)[C@H]32)cc1 [CBK289293] | 129.214% |

| Structure (SMILES) | % of control remaining |
| --- | --- |
| Cc1ccc(S(=O)(=O)Nc2ccc3c(ccn3CCC3CCN(C(=O)OC(C)(C)C)CC3)c2)cc1Cl [CBK172990] | 105.812% |
| N#CCCN(C(=O)NCc1c(Cl)cccc1Cl)C1CCCCC1 [CBK156371] | 95.3504% |
| CC1(C)C(CC(=O)NC2CCCCC2)CC1C(=O)NC1CCCCC1 (centres unmarked) [CBK009260] | 141.787% |
| CN(C)CCNC(=O)Cn1c(-c2cccs2)cc2cccnc21 [CBK282555] | 115.349% |
| O=S(=O)(Cc1noc([C@@H]2C[C@@H](O)CN2Cc2ccc(F)cc2)n1)c1ccc(F)cc1 [CBK288831] | 100.86% |
| CN1CCN(CC2(Cn3ccnc3-c3ccc(C(=O)O)cc3)CC2)CC1 [CBK307641] | 135.302% |
| O=C(Nc1ccc(S(=O)(=O)Nc2nccc(/C=C/c3ccc(Cl)cc3)n2)cc1)c1ccc(Br)cc1 [CBK263500] | 127.294% |
| CC(=O)Nc1ccc(C(=O)N2CCCC2c2cccc(Cc3ccc(Cl)cc3)n2)cc1 (centres unmarked) [CBK286144] | 106.256% |
| CCOC(=O)C1=C(C)NC(=O)NC1c1cccs1 (centres unmarked) [CBK086430] | 124.964% |
| c1ccc(CNC2CCc3[nH]c4ccccc4c3C2)cc1 (centres unmarked) [CBK091587T] | 138.964% |
| Cc1nc(N)nc(NCCC2CCCN(C)C2)c1Cl (centres unmarked) [CBK307445] | 122.789% |
| CC(=O)N1C[C@@H]2CCCCN(CC(=O)NC3CC3)[C@@H]2C1 [CBK285508] | 107.364% |
| CCCc1nn(CC(=O)NC(C)C)c(=O)c2cc3ccsc3n12 [CBK284147] | 122.02% |
| Cc1cc(=O)oc2cc(SCc3ccc(SC(F)(F)F)cc3)ccc12 [CBK002897] | 93.6289% |
| CCc1ccc(C(O)CNC2CCN(C3CCCCC3)CC2)cc1 (centres unmarked) [CBK304604] | 144.482% |
| NS(=O)(=O)c1cnc(Cl)c(Br)c1 [CBK034079] | 111.272% |
| O=C(NCCCc1ccc(F)cc1)c1cccc(N2CCCC2=O)c1 [CBK282684] | 109.492% |
| O=C(O)CC(CNC(=O)Cc1c[nH]c2ccccc12)c1ccc(Cl)cc1 (centres unmarked) [CBK286598] | 115.899% |
| O=C(NC1CC2CCC(C1)N2Cc1ccccc1)c1cccc(Cl)c1 (centres unmarked) [CBK116291] | 106.554% |
| CN1CCN(C(=O)CN(Cc2ccc(Cl)cc2)S(=O)(=O)c2ccc(Br)cc2)CC1 [CBK265771] | 140.728% |
| Cc1ccc(S(=O)(=O)Nc2nc3ccccc3nc2Nc2ccc(C(=O)O)cc2)cc1C [CBK300516] | 145.177% |
| COCc1cc(O)nc(Cc2c(Cl)cccc2Cl)n1 [CBK022389] | 100% |
| CCOc1ccc(-c2cncc(Nc3ccc4c(c3)OC(F)(F)C(F)(F)O4)n2)cc1 [CBK065728] | 126.123% |
| COc1ccc(N2CCN(c3cc(-c4cccc([N+](=O)[O-])c4)ncn3)CC2)cc1OC [CBK091031] | 150.132% |
| CCN(CC)CC(O)Cn1ccc(-c2cccs2)n1 (centres unmarked) [CBK005967] | 136.11% |
| COc1ccc(CN2CCC(c3ncc(C(=O)Nc4ccc(F)cc4)c(C)n3)CC2)cc1 [CBK285629] | 94.7488% |

As entered above:
For % of control remaining, `CCOc1ccc(-c2cncc(Nc3ccc4c(c3)OC(F)(F)C(F)(F)O4)n2)cc1` [CBK065728] has the entry 126.123%
For % of control remaining, `COc1ccc(N2CCN(c3cc(-c4cccc([N+](=O)[O-])c4)ncn3)CC2)cc1OC` [CBK091031] has the entry 150.132%
